Assay results published in patent US20250263778A1 (Hoffmann-La Roche, published 2025).
These are yes or no findings as the source states them, for the method shown. Some results given as binding are weak or reduced against the parent protein; the word gives no strength.

Sequences of proteins named here, by UniProt entry; tags and fusion partners are left off. Residues count along the entry.
UniProt Q924X6, residues 29-858: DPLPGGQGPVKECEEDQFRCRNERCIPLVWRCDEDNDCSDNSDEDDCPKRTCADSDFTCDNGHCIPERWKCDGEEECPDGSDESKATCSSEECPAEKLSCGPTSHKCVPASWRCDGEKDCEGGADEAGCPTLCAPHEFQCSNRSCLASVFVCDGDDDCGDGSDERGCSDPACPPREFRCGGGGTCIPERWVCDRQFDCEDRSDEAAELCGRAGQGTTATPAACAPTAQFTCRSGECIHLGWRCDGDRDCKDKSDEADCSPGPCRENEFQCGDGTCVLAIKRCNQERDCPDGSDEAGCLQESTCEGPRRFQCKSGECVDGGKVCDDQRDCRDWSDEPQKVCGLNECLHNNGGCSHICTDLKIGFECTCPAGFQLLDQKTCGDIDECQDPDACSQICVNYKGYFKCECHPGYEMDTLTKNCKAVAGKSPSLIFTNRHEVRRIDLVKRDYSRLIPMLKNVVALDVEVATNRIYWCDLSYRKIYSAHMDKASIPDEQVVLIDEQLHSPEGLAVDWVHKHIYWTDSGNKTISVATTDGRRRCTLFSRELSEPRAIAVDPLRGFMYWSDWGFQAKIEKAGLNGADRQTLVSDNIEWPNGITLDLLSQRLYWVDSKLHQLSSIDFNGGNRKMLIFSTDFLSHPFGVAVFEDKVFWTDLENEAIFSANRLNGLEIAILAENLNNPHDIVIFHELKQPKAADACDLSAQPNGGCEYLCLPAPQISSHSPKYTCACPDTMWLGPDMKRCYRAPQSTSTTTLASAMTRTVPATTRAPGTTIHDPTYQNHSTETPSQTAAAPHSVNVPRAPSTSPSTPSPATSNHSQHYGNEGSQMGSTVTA
UniProt Q14114, residues 33-826: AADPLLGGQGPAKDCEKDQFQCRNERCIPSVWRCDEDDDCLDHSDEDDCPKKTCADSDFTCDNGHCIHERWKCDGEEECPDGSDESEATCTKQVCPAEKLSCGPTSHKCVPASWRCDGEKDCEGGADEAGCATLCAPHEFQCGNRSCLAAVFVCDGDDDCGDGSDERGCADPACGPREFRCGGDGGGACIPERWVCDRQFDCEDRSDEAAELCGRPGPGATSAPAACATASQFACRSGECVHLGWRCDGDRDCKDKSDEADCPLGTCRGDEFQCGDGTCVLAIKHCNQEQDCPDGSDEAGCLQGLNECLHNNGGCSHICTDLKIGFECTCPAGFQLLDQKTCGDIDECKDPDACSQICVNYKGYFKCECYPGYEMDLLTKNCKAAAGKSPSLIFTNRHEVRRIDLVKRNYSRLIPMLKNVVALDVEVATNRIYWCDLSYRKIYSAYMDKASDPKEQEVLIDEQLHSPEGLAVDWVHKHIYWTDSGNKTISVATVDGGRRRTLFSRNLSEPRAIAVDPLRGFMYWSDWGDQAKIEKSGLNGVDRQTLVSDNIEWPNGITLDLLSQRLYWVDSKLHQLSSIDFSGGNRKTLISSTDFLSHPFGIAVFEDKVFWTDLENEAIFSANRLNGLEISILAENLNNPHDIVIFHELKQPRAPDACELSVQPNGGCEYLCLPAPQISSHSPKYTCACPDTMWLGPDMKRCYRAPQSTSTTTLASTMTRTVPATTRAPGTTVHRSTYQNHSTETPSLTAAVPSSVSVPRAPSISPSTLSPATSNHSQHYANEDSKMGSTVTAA

How the values were obtained:
[1] = molecular target: T1, murine LRP8, biotinylated (murine, UniProt Q924X6 29-858, limits assumed, biotinylated); experiment: ELISA, binding specificity
T1 construct: also called mu-antigen; murine antigen

[2] = molecular target: human LRP8 (Low-density lipoprotein receptor-related protein 8), biotinylated (human) (UniProt Q14114); experiment: ELISA, binding specificity

B1: BCC.763 (antibody, V domains shown)
VH: CQSVEESGGRLVTPGTPLTLTCTASGFSLSSYNMNWVRQAPGKGLEWIGYINKGGSAYYASWAKGRFTISRTSTTVDLKMTSPTTEDTATYFCVRSGGGGNLNLWGQGTLVTVSS
VL: AAVLTQTPSPVSAAVGGTVTISCQSSPNILGNYLSWFQQKPGQPPKLLIYYTSTLASGVPSRFKGSGSGTQFTLTISDVQCDDAATYYCLGVYRSDSDNVFGGGTEVVVK
notes: Rabbit IgG, kappa; also called antibody 763
[1]
  binding: binds
[2]
  binding: binds
